According to paper PMC5444859:
No constants are given. Whether binding was seen depends on the method and setting.

Target: CASV L-Cterm deltaC (L-Cterm lacking the C-terminal 14 residues) (California Academy of Sciences virus (CASV)) (UniProt J7HBG8)
Test: SAXS; both purified

CASV L-Cterm deltaC (L-Cterm lacking the C-terminal 14 residues) (from UniProt J7HBG8 1721-2032) (domain or fragment)
binding: no binding
